Data as given in PMC4186968, “Molecular Basis for Coordinating Transcription Termination with Noncoding RNA Degradation” (Molecular Cell, 2014).

Protein sequences, listed by entry. Tags and fused reporters are not part of them. Lines headed by an entry give the natural chain unless they say otherwise; changes in a name come on top.
UniProt P53617: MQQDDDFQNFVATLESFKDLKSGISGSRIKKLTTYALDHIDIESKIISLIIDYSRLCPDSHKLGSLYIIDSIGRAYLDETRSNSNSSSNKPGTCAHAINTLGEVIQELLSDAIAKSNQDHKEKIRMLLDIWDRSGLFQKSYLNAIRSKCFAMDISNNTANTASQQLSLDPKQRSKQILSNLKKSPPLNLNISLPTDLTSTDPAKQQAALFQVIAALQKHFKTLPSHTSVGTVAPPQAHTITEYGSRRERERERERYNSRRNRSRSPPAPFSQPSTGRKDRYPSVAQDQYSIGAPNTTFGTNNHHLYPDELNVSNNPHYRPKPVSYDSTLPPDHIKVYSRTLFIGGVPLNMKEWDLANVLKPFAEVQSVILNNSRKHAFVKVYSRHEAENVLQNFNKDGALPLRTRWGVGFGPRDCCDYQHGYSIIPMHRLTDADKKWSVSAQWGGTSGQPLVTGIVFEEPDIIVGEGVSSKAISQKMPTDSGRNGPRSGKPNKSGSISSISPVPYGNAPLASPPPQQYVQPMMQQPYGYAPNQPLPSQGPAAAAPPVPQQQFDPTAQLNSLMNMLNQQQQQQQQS

What was measured:
[1] = target: T1, recombinant Rrp6-Halo (S. cerevisiae) (UniProt Q12149); test: pull-down; recombinant Rrp6-Halo as bait, E. coli extracts with His-tagged Nrd1 variants; extracts treated with RNase A or rNrd1-ΔRRM used
T1 sequence: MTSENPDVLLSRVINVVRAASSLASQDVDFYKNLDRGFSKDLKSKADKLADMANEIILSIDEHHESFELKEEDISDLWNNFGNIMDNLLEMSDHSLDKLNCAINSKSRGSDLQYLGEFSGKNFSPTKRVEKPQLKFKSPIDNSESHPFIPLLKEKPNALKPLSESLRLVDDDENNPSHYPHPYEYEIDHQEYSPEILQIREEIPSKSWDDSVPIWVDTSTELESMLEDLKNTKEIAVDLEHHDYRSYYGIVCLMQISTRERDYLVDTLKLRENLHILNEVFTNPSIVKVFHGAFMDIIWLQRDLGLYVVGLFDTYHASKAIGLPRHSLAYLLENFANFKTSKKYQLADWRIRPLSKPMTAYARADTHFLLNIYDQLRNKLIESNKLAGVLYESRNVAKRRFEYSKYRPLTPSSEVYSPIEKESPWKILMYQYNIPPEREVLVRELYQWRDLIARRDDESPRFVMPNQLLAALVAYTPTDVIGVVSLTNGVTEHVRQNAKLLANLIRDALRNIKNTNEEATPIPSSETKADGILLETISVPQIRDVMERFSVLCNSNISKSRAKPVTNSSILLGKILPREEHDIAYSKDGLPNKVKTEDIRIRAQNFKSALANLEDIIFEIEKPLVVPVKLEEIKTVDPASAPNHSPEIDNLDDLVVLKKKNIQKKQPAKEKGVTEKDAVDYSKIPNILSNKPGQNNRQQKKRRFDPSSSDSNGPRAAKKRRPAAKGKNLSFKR

[2] = target: Nrd1ΔCIDp-TAP (S. cerevisiae) (UniProt P53617); test: co-IP; Nrd1p-TAP or Nrd1ΔCIDp-TAP immunopurified from yeast extracts treated with RNase; eluted by TEV cleavage; western blot

rNrd1-ΔRRM (from UniProt P53617)
binding [1]: binds

rNrd1ΔCID (from UniProt P53617)
binding [1]: binds

B1: Nab3p (protein, UniProt P38996 1-802)
chain: MSDENHNSDVQDIPSPELSVDSNSNENELMNNSSADDGIEFDAPEEEREAEREEENEEQHELEDVNDEEEEDKEEKGEENGEVINTEEEEEEEHQQKGGNDDDDDDNEEEEEEEEDDDDDDDDDDDDEEEEEEEEEEGNDNSSVGSDSAAEDGEDEEDKKDKTKDKEVELRRETLEKEQKDVDEAIKKITREENDNTHFPTNMENVNYDLLQKQVKYIMDSNMLNLPQFQHLPQEEKMSAILAMLNSNSDTALSVPPHDSTISTTASASATSGARSNDQRKPPLSDAQRRMRFPRADLSKPITEEEHDRYAAYLHGENKITEMHNIPPKSRLFIGNLPLKNVSKEDLFRIFSPYGHIMQINIKNAFGFIQFDNPQSVRDAIECESQEMNFGKKLILEVSSSNARPQFDHGDHGTNSSSTFISSAKRPFQTESGDMYNDDNGAGYKKSRRHTVSCNIFVKRTADRTYAIEVFNRFRDGTGLETDMIFLKPRMELGKLINDAAYNGVWGVVLVNKTHNVDVQTFYKGSQGETKFDEYISISADDAVAIFNNIKNNRNNSRPTDYRAMSHQQNIYGAPPLPVPNGPAVGPPPQTNYYQGYSMPPPQQQQQQPYGNYGMPPPSHDQGYGSQPPIPMNQSYGRYQTSIPPPPPQQQIPQGYGRYQAGPPPQPPSQTPMDQQQLLSAIQNLPPNVVSNLLSMAQQQQQQPHAQQQLVGLIQSMQGQAPQQQQQQLGGYSSMNSSSPPPMSTNYNGQNISAKPSAPPMSHQPPPPQQQQQQQQQQQQQQQQPAGNNVQSLLDSLAKLQK
binding [2]: binds

No constants are given. Whether binding was seen depends on the method and setting. Binding seen in cells or lysates may run through a third protein. A result given as binding can be weak or reduced; the word gives no strength.
